One experiment concerns the target FLAG-Smad2 (wildtype) (UniProt Q15796). Description: co-IP; FLAG-Smad2 and HA-PIAS plasmids transfected into HEK293T; IP with anti-FLAG from cell lysates, IB with anti-HA; overnight at 4 °C, protein A/G agarose.
Experiment [1] concerns the target FLAG-Smad2 K156R/K383R (double SUMOylation site mutant) (UniProt Q15796). Description: co-IP; wildtype or SUMO site mutant FLAG-Smad2, with or without SUMO1 overexpression, in HEK293T; IP with anti-FLAG from cell lysates, IB with anti-Smad4; overnight at 4 °C, protein A/G agarose.

Chains of the proteins cited; added tags and fusions are not shown. Lines headed by an entry give the natural chain unless they say otherwise; changes in a name come on top. A line that says so, or that is headed by a name, gives the form on record, which may keep a tag or linker.
UniProt Q15796: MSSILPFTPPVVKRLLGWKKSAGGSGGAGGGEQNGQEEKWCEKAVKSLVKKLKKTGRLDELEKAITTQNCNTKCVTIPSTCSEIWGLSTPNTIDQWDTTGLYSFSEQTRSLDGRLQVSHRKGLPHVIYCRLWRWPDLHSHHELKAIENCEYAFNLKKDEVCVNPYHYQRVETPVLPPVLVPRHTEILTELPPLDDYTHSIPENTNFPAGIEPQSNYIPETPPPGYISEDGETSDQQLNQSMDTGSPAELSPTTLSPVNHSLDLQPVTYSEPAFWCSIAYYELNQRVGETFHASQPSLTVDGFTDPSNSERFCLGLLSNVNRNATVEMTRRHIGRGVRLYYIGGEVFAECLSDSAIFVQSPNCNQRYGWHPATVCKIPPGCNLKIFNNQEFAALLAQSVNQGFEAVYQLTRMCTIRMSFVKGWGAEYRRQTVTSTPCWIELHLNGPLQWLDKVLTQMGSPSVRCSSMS
HA-PIAS2α (O75928-2, form named): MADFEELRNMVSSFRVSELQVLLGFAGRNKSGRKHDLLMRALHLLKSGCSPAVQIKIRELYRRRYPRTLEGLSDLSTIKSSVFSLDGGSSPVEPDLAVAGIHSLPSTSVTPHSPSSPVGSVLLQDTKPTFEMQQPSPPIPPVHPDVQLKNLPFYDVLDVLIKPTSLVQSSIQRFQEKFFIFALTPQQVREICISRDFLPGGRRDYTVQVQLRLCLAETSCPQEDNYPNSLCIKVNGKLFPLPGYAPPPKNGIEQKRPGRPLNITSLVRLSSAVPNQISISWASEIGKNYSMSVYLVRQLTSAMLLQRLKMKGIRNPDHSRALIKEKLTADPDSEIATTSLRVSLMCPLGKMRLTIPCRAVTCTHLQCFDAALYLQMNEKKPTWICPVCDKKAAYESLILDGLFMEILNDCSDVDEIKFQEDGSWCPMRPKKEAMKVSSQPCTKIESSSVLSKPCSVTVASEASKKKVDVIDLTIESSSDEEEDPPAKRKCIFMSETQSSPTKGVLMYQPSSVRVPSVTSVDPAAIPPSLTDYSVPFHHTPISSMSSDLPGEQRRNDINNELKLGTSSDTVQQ
UniProt Q13485: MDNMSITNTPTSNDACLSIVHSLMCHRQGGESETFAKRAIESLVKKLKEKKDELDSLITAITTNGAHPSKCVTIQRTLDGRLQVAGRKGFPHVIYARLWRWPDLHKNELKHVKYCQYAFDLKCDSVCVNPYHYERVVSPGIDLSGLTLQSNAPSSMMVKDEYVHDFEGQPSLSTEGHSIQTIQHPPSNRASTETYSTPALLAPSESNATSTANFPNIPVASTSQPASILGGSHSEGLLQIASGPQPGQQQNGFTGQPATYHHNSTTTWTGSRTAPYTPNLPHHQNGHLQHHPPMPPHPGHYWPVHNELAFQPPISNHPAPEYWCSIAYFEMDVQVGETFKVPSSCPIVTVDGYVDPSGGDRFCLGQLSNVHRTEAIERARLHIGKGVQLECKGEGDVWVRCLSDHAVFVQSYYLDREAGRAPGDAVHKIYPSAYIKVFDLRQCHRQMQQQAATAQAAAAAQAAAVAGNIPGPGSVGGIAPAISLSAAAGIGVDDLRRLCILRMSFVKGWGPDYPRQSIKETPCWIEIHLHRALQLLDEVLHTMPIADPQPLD

No constants are given. Whether binding was seen depends on the method and setting. Binding seen in cells or lysates may run through a third protein. Some results given as binding are weak or reduced against the parent protein; the word gives no strength.

Consider “HA-PIAS2α (from UniProt O75928-2 1-572) (enzyme)”, for which the binding result with FLAG-Smad2 (wildtype) is given as “binds”.

With Smad4 (from UniProt Q13485 1-552), the binding result in experiment [1] is listed as “binds”.

The record behind these values is article PMC10570702.
